No constants are given. Whether binding was seen depends on the method and setting. Binding seen in cells or lysates may run through a third protein. Some entries that bind do so weakly or less than the wild type. For part of these data: Sequences can lack the tags named with a protein.
Columns and labels:
[1] = molecular target: T1, Flag-KL (Flag-tagged Klotho) (human) (UniProt Q9UEF7); test: co-IP; transfected A549 cells (the text says HEK-293 for Fig. 5A); lysate in TNE buffer or IP buffer (50 mM Tris-HCl, 2 mM EDTA, 250 mM NaCl, 10% glycerol, 0.5% NP-40); IP with anti-FLAG, anti-HA or anti-Myc and Protein G agarose overnight at 4 °C; immunoblot; some samples with SHANK1 overexpression, sh/si-SHANK1 or si-MDM2
T1 sequence: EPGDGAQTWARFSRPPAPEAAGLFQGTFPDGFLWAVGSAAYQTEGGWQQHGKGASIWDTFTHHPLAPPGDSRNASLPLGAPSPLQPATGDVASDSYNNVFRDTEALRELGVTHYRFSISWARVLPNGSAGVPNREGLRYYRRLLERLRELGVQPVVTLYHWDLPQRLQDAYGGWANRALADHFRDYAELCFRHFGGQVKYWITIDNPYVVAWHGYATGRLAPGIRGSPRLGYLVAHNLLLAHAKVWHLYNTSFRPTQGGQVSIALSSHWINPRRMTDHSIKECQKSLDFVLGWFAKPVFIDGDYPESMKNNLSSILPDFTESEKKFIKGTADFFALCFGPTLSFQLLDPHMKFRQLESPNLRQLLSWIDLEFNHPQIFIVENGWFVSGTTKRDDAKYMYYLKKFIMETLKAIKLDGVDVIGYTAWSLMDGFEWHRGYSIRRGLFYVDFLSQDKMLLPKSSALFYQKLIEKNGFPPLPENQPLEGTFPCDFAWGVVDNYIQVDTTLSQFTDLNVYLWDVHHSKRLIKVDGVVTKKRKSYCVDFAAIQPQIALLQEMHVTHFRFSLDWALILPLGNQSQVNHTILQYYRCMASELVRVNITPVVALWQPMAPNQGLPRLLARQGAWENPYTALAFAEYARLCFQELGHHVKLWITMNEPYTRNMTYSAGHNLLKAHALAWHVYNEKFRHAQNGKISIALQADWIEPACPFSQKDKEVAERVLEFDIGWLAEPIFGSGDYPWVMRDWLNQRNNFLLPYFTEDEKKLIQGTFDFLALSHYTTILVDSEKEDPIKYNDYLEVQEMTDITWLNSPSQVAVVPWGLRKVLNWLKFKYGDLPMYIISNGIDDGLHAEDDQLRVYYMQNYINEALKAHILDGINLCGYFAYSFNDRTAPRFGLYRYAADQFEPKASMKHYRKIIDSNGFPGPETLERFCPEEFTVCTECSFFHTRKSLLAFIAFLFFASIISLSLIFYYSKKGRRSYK

Sequences of proteins named here, by UniProt entry; tags and fusion partners are left off.
UniProt Q00987: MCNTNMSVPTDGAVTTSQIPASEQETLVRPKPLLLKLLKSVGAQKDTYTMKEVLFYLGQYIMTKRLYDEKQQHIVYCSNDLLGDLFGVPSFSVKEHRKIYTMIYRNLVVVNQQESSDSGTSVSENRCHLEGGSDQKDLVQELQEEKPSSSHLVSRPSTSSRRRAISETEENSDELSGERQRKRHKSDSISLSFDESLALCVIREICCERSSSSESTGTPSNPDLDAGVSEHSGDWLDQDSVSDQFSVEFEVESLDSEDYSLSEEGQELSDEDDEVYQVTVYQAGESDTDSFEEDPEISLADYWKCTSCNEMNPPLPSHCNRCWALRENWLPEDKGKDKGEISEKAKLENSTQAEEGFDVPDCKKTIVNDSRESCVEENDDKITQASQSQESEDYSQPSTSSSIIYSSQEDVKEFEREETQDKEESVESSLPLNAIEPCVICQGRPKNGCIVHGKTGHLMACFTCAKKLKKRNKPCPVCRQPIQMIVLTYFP
UniProt Q9Y566: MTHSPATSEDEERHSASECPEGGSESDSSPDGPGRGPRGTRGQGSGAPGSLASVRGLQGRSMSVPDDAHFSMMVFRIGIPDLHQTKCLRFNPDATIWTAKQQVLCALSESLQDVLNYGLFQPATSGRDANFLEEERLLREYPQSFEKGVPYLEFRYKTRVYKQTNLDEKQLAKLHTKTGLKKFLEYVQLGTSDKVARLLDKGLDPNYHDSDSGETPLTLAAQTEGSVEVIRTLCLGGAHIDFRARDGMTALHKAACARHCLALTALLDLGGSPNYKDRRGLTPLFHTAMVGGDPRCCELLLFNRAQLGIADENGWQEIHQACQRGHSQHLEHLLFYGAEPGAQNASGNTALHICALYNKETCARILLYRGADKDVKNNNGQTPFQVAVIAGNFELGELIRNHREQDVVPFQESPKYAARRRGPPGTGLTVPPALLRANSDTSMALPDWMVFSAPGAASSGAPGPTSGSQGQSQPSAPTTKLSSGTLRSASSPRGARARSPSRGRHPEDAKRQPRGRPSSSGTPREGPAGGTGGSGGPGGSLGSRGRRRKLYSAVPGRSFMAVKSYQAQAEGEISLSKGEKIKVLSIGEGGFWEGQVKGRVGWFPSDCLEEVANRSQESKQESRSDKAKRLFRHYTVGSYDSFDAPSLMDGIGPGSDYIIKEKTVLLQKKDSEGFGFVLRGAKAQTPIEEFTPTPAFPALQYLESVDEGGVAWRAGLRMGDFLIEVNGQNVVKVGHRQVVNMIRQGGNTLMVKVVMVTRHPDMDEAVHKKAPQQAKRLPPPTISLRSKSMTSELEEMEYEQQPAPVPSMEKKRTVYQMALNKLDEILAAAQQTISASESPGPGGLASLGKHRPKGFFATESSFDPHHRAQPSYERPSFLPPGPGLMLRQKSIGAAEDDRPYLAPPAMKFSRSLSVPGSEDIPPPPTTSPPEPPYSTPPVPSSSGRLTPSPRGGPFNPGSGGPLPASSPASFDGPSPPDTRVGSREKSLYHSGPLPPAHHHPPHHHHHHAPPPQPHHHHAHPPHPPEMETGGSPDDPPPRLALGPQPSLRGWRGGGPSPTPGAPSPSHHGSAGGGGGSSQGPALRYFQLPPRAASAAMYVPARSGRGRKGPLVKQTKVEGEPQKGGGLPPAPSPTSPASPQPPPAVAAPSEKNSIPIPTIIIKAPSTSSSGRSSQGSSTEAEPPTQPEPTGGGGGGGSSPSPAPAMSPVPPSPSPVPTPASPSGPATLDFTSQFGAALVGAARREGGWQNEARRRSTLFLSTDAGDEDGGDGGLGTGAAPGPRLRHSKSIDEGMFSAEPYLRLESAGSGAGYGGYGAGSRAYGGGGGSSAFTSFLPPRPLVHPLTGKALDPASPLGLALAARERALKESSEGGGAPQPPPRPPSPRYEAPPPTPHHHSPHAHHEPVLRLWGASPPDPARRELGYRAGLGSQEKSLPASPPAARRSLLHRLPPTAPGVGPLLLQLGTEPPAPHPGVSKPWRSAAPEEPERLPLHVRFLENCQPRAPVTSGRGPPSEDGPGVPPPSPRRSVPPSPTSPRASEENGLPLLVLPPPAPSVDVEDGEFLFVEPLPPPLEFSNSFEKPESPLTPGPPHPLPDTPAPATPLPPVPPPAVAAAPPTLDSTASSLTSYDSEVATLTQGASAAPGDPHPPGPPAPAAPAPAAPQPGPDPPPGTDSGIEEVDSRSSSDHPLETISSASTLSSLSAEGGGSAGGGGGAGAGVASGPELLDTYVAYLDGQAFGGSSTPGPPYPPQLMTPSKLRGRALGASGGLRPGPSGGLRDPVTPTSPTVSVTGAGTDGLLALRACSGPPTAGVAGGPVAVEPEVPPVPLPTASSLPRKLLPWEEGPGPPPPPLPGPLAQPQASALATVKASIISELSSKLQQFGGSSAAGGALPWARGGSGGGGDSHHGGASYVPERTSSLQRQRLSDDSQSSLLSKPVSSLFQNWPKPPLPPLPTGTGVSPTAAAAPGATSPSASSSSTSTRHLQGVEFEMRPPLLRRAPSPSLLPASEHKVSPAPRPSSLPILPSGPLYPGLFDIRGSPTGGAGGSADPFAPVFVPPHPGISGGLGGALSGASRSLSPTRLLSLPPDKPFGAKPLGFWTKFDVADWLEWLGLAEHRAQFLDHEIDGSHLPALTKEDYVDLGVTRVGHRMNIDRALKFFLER

[2] = molecular target: T2, Klotho (KL), endogenous in human NSCLC cells (human (endogenous in A549 and H1299)) (UniProt Q9UEF7); test: co-IP; endogenous proteins, A549 cell lysate; IP with mouse anti-MDM2 or rabbit anti-KL; immunoblot; some samples with si-SHANK1
T2 sequence: T1 sequence

[3] = molecular target: MDM2, endogenous in human NSCLC cells (human (endogenous in A549 and H1299)) (UniProt Q00987); test: as above
[4] = molecular target: T2, Klotho (KL), endogenous in human NSCLC cells (human (endogenous in A549 and H1299)); test: co-IP; endogenous proteins, H1299 cell lysate (without p53 expression); IP with KL antibody; immunoblot; with or without si-SHANK1

Row | binding [1] | binding [2] | binding [3] | binding [4] | Substance
1 | binds |  |  |  | SHANK1-myc (SH3 and multiple ankyrin repeat domains 1, myc-tagged) (from UniProt Q9Y566 1-2161)
2 |  | binds | binds | binds | SHANK1, endogenous in human NSCLC cells (from UniProt Q9Y566 1-2161)
3 |  | binds |  | binds | MDM2, endogenous in human NSCLC cells (from UniProt Q00987 1-491)

— PMC9039064
